In paper PMC12040169 (PLOS Biology, 2025):
The other results are listed elsewhere or left out.

Test system: T1, CTL2-GFP (C. trachomatis L2/434/Bu, GFP-expressing)
T1 construct: L2/434/Bu, GFP-expressing
Parameters: species or system HeLa; Intracellular C. trachomatis growth in HeLa cells, bulk GFP fluorescence relative to DMSO
Conditions: bulk GFP, single well; 28.5 h, 10 µM; inhibitor

Structure (SMILES)	% of control remaining
COc1cc(/C=N/c2ccc(O)c(-c3nc4ccccc4s3)c2)ccc1OC(=O)c1ccc(Cl)cc1Cl [CBK261243]	119.772%
COc1ccccc1NC(=S)NCCc1ccccn1 [CBK265358]	100%
COC1CCCC(C(=O)N2CCC(c3onc4c3CCC4)CC2)C1 (stereo not drawn) [CBK285519]	111.207%
O=C(CN1C(=O)c2ccc([N+](=O)[O-])cc2C1=O)Nc1cccc2c1C(=O)N(c1ccccc1)C2=O [CBK265576]	108.182%
CCCCCC(=O)Nc1ccc(S(=O)(=O)Nc2nnc(CC)s2)cc1 [CBK045478]	27.8375%
CN(C)C1(c2nnnn2CCOC(=O)Nc2ccc(Cl)cc2)CCCCC1 [CBK266093]	93.4794%
COc1cc(NC(=O)CC2SC(NC3CCCCC3)=NC2=O)c(OC)cc1Cl (stereo not drawn) [CBK059497]	107.194%
CCNc1nc(-c2ccsc2)cn2ccnc12 [CBK037375]	112.274%
O=C(c1ccc([N+](=O)[O-])cc1)n1nc(-c2cccnc2)nc1NCc1ccc(F)cc1 [CBK268962]	146.047%
O=C(c1ccc2ncccc2c1)N1CCN(c2ncccn2)CC1 [CBK144503]	127.546%
O=C(c1cc2c(F)cccc2[nH]1)N1CCC(Oc2cccnc2)CC1 [CBK281468]	83.2683%
Cc1ccc(-c2nc(Nc3ccc(Br)cc3)sc2CC(=O)O)cc1 [CBK264251]	119.719%
Cc1ccccc1-n1ccn(S(=O)(=O)C(C)C)c1=O [CBK106566]	106.616%
CN(C)C(=O)c1cc2cc(NC(=O)CC3COCCN3)ccc2s1 (stereo not drawn) [CBK306710]	115.982%
CCCn1nc(C)cc1NC(=O)c1ncoc1-c1ccc(F)cc1 [CBK282361]	138.106%
O=C(O)CCN1CCCC2(CCN(C(=O)Cc3c[nH]c4ccccc34)C2)C1 (stereo not drawn) [CBK137138]	113.044%
Cc1cc(CNC(=O)N2CCCC(CO)C2)no1 (stereo not drawn) [CBK156028]	96.0918%
CN(C)c1cccc(-c2ccc(Nc3cccc(NC(=O)c4ccncc4)c3)nc2)c1 [CBK037721]	116.091%
CC(C)C(=O)NCCn1nc(-c2ccco2)ccc1=O [CBK283863]	124.761%
Cc1nn(C)cc1-c1cncn1CCCn1ccnc1C(C)C [CBK281972]	124.006%
O=C(COc1cccc([N+](=O)[O-])c1)Nc1cc(C(=O)O)cc(C(=O)O)c1 [CBK263604]	93.2263%
CC(=O)Nc1nc(CN2CCOC(c3ccc(F)cc3)C2)cs1 (stereo not drawn) [CBK305591]	126.178%
Cc1nc(C)c(-c2csc(Nc3ncccn3)n2)s1 [CBK263297B]	90.9895%
Oc1ccc(CN2CCN(c3ccc(F)cc3)CC2)c2cccnc12 [CBK267985]	90.7719%
CCOC(=O)c1cccc(-c2ccc(OC(F)(F)F)cc2)n1 [CBK149251]	120.07%
Cc1nnc(SCCn2c(N3CCCCC3)nc3c2c(=O)n(C)c(=O)n3C)s1 [CBK269288]	145.28%

Structure (SMILES)	% of control remaining
O=[N+]([O-])c1ccc(Sc2nnc(-c3cccs3)n2CC2CCCO2)cn1 (stereo not drawn) [CBK297483]	55.056%
O=[N+]([O-])c1ccc(NCCNS(=O)(=O)c2ccccc2)cc1 [CBK261948]	141.847%
CC(C(=O)N1c2ccccc2Sc2ccccc21)N1C(=O)c2ccccc2C1=O (stereo not drawn) [CBK018045]	89.084%
O=C(Nc1cccnc1)N1CCc2ccccc2C1 [CBK155312]	114.256%
Cc1ccccc1-n1nc(-c2ccc(NC(=O)c3ccccc3)cc2)cc1NC(=O)c1ccccc1 [CBK261264]	102.836%
CC(C)NS(=O)(=O)c1ccc(NS(=O)(=O)c2cccc(C(=O)O)c2)cc1 [CBK296950]	128.994%
CCc1nccn1CCC(=O)Nc1ccc2c(c1)nc(CC)n2CC [CBK281629]	152.518%
COc1ccccc1-c1ccc(NC(=O)CCc2ccc3c(c2)n(C)c(=O)n3C)cc1 [CBK286527]	102.946%
Cc1c(C(=O)C2=C(O)C(=O)N(CCCN(C)C)C2c2ccccn2)cnn1-c1ccccc1 (stereo not drawn) [CBK266516]	127.909%
COC(=O)/C=C/c1cccc(-c2cnc(N)c(-c3ccc(O)cc3)n2)c1 [CBK125689]	101.537%
Cc1cc(C)cc(NC(=O)c2ccc(CSc3nnc(N)s3)cc2)c1 [CBK266609]	98.3208%
O=C(c1cncnc1)N1CCC2(CCN(C(=O)c3cc(F)c(F)cc3F)C2)C1 (stereo not drawn) [CBK131405]	109.236%
CN(C)c1nc(-c2cc(C(F)(F)F)cc(C(F)(F)F)c2)ccc1C(=O)NCc1ccco1 [CBK106094]	124.889%
COc1ccc(C(C)C)cc1-c1cncc(N2CCN(Cc3ccccn3)CC2)n1 [CBK065792]	135.139%
OC(CNCc1cccs1)c1ccccc1 (stereo not drawn) [CBK057092]	121.629%
COCCN(Cc1cnn(C)c1)C(=O)NCc1nc2c(C)cccc2o1 [CBK307642]	146.574%
O=C(O)C1C2C=CC(C2)C1C(=O)NCc1ccncc1 (stereo not drawn) [CBK265403]	109.284%
Cc1sc2c(C3CCN(C(=O)C4CC4C)CC3)nc(C)n2c1C (stereo not drawn) [CBK285299]	76.8325%
COc1ccc(Cl)cc1-c1noc(Cn2nc(C)c(Cl)c2C)n1 [CBK269813]	137.203%
c1sc(C2CN3CCCC3CO2)nc1C1CCCC1 (stereo not drawn) [CBK304814]	120.035%
COc1ccc(C)cc1S(=O)(=O)Nc1cc(NCCCN2CCOCC2)c2occc2c1 [CBK067837C]	92.3758%
c1ccc2[nH]c(SCCN3CCOCC3)nc2c1 [CBK262593]	92.7613%
O=C(CSc1ccc2nnc(-c3ccc(F)cc3)n2n1)N1CCCC1 [CBK287519]	127.798%
O=C(O)c1cccnc1SCc1cc2c(cc1Cl)OCO2 [CBK287178]	101.614%
COc1ccc(-c2ccc(OC3CCNCC3)cc2)c(OC)c1 [CBK093816T]	88.4111%
O=C1CN(Cc2nc(-c3cccc(C(F)(F)F)c3)no2)CCN1 [CBK306038]	105.96%

Exported comma-delimited: entries from further up.
Structure (SMILES),% of control remaining
O=[N+]([O-])c1ccc(Sc2nnc(-c3cccs3)n2CC2CCCO2)cn1 (stereo not drawn) [CBK297483],55.056%
COC(=O)/C=C/c1cccc(-c2cnc(N)c(-c3ccc(O)cc3)n2)c1 [CBK125689],101.537%
c1ccc2[nH]c(SCCN3CCOCC3)nc2c1 [CBK262593],92.7613%

More compounds.

Structure (SMILES)	% of control remaining
N#Cc1c(NC(=O)CSc2nc(=O)cc(N)n2CCc2ccccc2)sc2c1CCCC2 [CBK293993]	148.379%
Cc1nc(CN2CCN(c3ccc4nnnn4n3)CC2)cs1 [CBK306056]	118.004%
O=C(NCCO)NC(=S)c1ccccc1 [CBK267213]	167.059%
O=C(CSCc1ccc(Br)cc1)Nc1ccc(S(=O)(=O)N2CCOCC2)cc1 [CBK267845]	113.788%
COCCNC(=O)c1cc2n(n1)C(C(F)(F)F)CC(c1ccccc1)N2 (stereo not drawn) [CBK307610]	111.628%
CC(C)(C)NC(=O)C1C2CCC3(CC(=O)c4cc(Cl)ccc4O3)C21 (stereo not drawn) [CBK284963]	88.948%
Cc1ccccc1-c1ccc2n(c1=O)C[C@H]1C[C@@H]2CN(C(=O)CCC(=O)O)C1 [CBK289181]	117.85%
O=c1[nH]c2ncc(-c3ccsc3)nc2n1Cc1ccccc1 [CBK064227]	176.756%
CCC(=O)N(C)C1CCN(c2ncnc3ccccc23)CC1 [CBK304829]	97.2144%
CC(=O)N1CC[C@H]2NC(=O)CNC(=O)C3(CCCC[C@H]2C1)CCN(Cc1ccc(Cl)cc1)CC3 [CBK292119]	143.295%
Cc1ccc(C(=O)CC(C(=O)O)c2c(C)[nH]c3ccccc23)cc1 (stereo not drawn) [CBK269337]	156.318%
CCN1CCC(NC(=O)CSc2nc3ccccc3n2CCOC)CC1 [CBK306100]	85.3105%
COc1ccc(F)c(CN(CC(C)(C)CN)C(=O)Nc2ccccc2C(F)(F)F)c1 [CBK002412C]	111.932%
CCCC(=O)Nc1nnc(-c2ccc(C)cc2C)o1 [CBK287700]	113.518%
Cc1cc(N2CCCC2)ccc1NC(=O)CCn1c(-c2cccs2)n[nH]c1=S [CBK297883]	129.766%
O=C(Nc1cccc2ccccc12)C1CCCN1S(=O)(=O)c1ccc(F)cc1 (stereo not drawn) [CBK138924]	91.4429%
CC(C)C(=O)N1CCC(c2nc3ccccn3c2NC(C)(C)C)CC1 [CBK284745]	165.725%
CC1(C)CC(=O)N(C2CCCCC2)C(=O)C1C#N (stereo not drawn) [CBK009894]	98.7474%
COC(=O)CCc1ccc(S(=O)(=O)N2CCCN(Cc3cccc(Br)c3)CC2)cc1 [CBK062981]	118.158%
CCCCN(C=O)c1c(CC)nc2c(OCCOc3ccc(F)cc3)cccn12 [CBK147631]	153.723%
O=C(Cn1ccnc1)N1CCCCC1c1nc2ccccc2[nH]1 (stereo not drawn) [CBK283936]	104.816%
COc1ccc(C(=O)N2CCC3(CCN(Cc4cc(=O)[nH]c(=O)[nH]4)C3)C2)cc1OC (stereo not drawn) [CBK132162]	107.555%
Cc1[nH]c2ccccc2c1C(=O)C(=O)Nc1ccc(C#N)cc1 [CBK269896]	155.092%
Cc1cc(Cl)cc(C)c1NS(=O)(=O)c1ccc(N2CCCNCC2)c2ccccc12 [CBK004433C]	67.4345%
COc1cccc(CN(Cc2ncc[nH]2)Cc2ccco2)c1 [CBK282496]	136.716%
O[C@@H]1C[C@@H](c2nc(-c3ccccn3)no2)N(Cc2ccccc2)C1 [CBK288900]	129.348%
